Measurements from article PMC11408687.

T1: GST-MANF fusion protein (UniProt P55145)
T1 sequence: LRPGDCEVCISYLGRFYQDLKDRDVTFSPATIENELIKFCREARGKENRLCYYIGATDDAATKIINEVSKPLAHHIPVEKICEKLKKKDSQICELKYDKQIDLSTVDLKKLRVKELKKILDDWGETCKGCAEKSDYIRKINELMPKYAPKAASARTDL

B1: His-MANF fusion protein (protein, UniProt P55145 25-182)
chain: T1 sequence

Columns and labels:
GST-MANF fusion protein = target: T1, GST-MANF fusion protein; assay: pull-down; GST-tag fusion protein immobilised on glutathione Sepharose beads, purified His-tag protein added, 4 °C; GST as negative control; Coomassie staining and immunoblotting; both purified
[1] = target: GST-LRP5-C fusion protein (intracellular domain of LRP5); assay: as above

Molecule	binding (GST-MANF fusion protein)	binding [1]
His-LRP5-C fusion protein (intracellular domain of LRP5) (domain or fragment)	no binding	–
B1	–	no binding

No constants are given. Whether binding was seen depends on the method and setting. Sequences can lack the tags named with a protein.
